# Laboratory results taken from the supplement of paper PMC12067093, “Discovery and optimisation of a covalent ligand for TRIM25 and its application to targeted protein ubiquitination” (Chemical Science, 2025).
# Sequences of proteins named here, by UniProt entry; tags and fusion partners are left off. A change or cut given only in a name is not applied to a line headed by its entry.
# UniProt Q5VW32: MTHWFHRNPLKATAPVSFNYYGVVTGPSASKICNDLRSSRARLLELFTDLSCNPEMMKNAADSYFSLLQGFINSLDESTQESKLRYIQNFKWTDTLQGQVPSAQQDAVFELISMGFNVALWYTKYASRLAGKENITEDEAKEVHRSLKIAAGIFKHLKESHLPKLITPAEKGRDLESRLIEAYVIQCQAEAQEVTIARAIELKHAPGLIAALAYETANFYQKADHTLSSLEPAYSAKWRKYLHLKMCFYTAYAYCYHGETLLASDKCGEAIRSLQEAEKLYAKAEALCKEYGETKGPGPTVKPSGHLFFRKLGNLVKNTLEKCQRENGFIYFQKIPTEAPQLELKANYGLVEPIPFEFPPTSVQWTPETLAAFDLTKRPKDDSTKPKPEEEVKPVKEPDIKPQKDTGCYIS
# UniProt Q13555: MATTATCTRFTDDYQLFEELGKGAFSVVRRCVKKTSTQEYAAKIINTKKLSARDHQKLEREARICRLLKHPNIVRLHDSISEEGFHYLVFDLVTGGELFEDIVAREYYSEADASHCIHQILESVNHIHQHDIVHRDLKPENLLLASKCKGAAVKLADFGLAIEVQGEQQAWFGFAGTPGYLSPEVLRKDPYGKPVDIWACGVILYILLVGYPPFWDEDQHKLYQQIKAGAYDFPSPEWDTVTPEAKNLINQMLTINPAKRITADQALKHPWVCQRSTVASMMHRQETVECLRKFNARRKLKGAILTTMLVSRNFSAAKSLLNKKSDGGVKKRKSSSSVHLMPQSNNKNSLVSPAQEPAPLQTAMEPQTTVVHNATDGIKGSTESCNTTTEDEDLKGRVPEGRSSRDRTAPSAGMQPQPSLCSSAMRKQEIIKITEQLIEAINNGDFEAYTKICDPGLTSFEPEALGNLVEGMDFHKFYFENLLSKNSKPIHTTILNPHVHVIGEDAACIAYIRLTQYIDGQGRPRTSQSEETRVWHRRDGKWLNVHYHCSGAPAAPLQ
# UniProt O14981: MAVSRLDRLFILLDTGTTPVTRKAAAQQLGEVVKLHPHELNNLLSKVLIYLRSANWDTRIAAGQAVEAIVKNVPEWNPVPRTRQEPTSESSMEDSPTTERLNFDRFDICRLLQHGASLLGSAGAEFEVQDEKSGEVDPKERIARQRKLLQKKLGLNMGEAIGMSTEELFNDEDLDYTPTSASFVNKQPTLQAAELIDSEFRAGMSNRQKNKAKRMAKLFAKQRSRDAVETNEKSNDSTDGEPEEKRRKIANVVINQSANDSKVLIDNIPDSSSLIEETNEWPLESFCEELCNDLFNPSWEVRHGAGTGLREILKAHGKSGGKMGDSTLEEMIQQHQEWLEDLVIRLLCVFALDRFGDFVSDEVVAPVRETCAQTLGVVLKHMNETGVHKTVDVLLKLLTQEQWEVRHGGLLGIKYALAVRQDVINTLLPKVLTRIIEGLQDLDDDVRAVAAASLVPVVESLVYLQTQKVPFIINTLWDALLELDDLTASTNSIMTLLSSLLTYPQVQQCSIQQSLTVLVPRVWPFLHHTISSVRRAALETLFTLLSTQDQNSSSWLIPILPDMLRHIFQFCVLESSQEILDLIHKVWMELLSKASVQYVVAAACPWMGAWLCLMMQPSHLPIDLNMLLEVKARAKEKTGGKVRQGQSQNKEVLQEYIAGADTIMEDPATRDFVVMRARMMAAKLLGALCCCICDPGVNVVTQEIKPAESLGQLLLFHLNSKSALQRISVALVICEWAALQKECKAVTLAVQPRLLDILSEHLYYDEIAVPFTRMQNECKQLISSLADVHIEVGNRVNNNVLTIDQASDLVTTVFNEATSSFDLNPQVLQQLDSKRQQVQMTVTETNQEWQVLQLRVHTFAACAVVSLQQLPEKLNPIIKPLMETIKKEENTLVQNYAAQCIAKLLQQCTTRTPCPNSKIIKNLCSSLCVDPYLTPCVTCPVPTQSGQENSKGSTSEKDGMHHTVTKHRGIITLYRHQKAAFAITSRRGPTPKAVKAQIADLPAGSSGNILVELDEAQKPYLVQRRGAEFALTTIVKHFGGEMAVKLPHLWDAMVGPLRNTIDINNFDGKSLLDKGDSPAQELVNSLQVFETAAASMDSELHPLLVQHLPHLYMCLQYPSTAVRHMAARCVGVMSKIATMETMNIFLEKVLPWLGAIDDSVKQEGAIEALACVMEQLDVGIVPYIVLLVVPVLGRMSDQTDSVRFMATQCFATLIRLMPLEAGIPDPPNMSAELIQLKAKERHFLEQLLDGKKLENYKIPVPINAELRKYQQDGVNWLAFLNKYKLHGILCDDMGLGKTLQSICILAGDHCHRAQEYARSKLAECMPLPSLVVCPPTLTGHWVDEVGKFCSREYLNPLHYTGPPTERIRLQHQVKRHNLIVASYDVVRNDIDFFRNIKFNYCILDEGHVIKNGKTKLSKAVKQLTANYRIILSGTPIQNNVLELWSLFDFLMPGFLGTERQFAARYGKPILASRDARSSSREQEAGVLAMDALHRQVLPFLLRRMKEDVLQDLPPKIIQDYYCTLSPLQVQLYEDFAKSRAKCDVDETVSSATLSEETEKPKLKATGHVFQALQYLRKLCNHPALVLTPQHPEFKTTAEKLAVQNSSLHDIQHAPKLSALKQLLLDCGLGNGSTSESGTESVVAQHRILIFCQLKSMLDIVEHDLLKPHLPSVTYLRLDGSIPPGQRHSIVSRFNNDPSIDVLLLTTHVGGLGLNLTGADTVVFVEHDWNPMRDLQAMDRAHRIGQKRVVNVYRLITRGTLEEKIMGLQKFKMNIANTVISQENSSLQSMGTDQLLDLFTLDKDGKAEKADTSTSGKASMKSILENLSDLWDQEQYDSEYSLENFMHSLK
# UniProt P27824: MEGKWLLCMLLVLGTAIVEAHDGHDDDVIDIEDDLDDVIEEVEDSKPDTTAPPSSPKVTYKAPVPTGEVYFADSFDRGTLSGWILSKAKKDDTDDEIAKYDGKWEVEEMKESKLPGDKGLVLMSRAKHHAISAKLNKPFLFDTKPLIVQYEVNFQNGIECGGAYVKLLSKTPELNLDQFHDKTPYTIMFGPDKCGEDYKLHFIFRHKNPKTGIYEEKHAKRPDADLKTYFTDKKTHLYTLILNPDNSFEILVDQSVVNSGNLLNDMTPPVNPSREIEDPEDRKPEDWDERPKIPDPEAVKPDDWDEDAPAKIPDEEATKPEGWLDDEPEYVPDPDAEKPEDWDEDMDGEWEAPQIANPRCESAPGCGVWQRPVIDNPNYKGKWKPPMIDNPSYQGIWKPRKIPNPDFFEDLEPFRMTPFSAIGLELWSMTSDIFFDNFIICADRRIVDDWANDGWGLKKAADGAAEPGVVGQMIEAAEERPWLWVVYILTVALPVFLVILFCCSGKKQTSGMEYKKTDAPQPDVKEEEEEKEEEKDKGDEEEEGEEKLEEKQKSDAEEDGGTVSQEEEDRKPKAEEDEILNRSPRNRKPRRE
# UniProt Q01518, whole entry, looked up: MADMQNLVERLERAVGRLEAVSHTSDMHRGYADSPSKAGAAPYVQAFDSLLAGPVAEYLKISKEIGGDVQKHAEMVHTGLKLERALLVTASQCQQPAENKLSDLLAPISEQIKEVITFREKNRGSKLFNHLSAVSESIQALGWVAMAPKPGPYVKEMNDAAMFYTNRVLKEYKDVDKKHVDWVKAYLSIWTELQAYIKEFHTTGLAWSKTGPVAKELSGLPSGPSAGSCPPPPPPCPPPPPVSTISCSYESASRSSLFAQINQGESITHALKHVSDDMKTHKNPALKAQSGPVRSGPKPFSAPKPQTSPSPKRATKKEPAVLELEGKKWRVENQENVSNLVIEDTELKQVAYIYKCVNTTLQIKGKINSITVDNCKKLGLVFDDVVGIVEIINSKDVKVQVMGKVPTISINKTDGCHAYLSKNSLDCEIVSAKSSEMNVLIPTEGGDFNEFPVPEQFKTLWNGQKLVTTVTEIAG
# UniProt P0DMB2: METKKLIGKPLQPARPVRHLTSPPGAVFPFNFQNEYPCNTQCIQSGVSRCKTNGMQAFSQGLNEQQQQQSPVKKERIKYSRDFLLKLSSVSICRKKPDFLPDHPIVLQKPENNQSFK
# UniProt Q5T5Y3: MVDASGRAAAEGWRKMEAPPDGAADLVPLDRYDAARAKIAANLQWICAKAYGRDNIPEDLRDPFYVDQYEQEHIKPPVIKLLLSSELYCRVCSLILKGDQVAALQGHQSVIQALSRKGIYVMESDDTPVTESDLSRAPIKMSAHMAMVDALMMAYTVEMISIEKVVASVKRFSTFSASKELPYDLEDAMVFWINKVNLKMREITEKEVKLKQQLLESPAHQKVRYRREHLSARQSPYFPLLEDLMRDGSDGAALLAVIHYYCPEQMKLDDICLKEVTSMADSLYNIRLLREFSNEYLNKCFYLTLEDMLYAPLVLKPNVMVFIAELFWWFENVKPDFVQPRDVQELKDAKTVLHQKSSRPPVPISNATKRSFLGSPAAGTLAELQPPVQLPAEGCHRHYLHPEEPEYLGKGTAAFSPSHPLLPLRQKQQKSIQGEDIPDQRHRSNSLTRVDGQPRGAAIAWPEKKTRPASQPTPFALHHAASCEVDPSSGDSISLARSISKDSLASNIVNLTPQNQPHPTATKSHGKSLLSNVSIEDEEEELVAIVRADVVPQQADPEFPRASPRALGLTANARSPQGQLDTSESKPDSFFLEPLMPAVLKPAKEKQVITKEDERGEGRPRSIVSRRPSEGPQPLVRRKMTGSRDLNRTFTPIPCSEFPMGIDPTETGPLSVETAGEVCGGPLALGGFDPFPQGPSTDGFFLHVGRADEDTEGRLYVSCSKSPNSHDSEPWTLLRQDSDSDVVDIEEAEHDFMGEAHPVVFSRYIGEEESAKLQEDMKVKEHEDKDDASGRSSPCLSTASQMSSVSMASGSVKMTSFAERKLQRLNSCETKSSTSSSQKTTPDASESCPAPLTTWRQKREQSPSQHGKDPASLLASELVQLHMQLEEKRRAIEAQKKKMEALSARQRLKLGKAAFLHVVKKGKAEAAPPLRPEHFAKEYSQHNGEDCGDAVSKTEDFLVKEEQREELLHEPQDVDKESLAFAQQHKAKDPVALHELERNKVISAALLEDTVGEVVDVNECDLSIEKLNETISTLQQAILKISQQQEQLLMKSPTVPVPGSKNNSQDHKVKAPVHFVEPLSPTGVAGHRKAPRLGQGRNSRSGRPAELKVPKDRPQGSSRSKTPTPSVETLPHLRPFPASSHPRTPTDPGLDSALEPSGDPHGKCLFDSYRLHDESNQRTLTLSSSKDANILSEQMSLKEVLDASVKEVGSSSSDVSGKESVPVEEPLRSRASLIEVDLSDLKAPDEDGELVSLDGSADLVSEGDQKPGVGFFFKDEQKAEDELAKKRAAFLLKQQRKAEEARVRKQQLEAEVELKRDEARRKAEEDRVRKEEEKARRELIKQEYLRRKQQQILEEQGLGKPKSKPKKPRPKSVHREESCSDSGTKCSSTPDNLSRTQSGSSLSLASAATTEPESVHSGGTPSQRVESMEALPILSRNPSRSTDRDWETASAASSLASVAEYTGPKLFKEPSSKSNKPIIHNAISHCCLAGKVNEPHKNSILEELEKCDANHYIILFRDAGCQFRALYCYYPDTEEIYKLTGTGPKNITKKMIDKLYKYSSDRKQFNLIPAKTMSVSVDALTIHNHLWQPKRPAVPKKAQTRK
# This is one part of the list.
# Compound: Cc1cc(ccc1-c1ccccc1)C(=O)N1CCCN(CC1)C(=O)CCl [compound 10]
# Assay: probe-labelled cysteine peptide fold change vs DMSO (competition) (log2 fold change); higher = less target engagement (more negative = stronger competition)
# Conditions: 10 µM; THP-1; incubation time: 4 h
# 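Also: competitive profiling in live THP-1 cells: cysteine peptides tagged with an iodoacetamide desthiobiotin (IA-DTB) probe, intensity after compound treatment relative to DMSO-treated cells.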
row,Target,probe-labelled cysteine peptide fold change
1,C6orf106_Q9H6K1_18_FSCLGTTDK (UniProt Q9H6K1),-0.07
2,BTK_Q06187_527_NCLVNDQGVVK (UniProt Q06187),-0.0292
3,CAND1_Q86VP6_1153_ATCTTK (UniProt Q86VP6),-0.229
4,C2CD2L_O14523_385_RQLCPLTPGPGK (UniProt O14523),0.0512
5,CALCOCO2_Q13137_321_LSENEIICNALQR (UniProt Q13137),-0.106
6,BRCA2_P51587_1399_AQEACHGNTSNK (UniProt P51587),-0.233
7,BUB3_O43684_62_YQHTGAVLDCAFYDPTHAWSGGLDHQLK (UniProt O43684),0.12
8,BROX_Q5VW32_52_LLELFTDLSCNPEMMK (UniProt Q5VW32),-0.00582
9,C3orf38_Q5JPI3_224_CASSPHGLVMVGVAGTVHR (UniProt Q5JPI3),0.0426
10,CAMK2D_Q13557_7_ASTTTCTR (UniProt Q13557),0.473
11,CAMK2G_Q13555_290_QETVECLR (UniProt Q13555),-0.0595
12,CACUL1_Q86Y37_362_AGDELAYNSSSACASSR (UniProt Q86Y37),-0.307
13,C1GALT1_Q9NS00_232_CTHSSSIEDLALGR (UniProt Q9NS00),0.236
14,BTAF1_O14981_1290_LHGILCDDMGLGK (UniProt O14981),-0.0956
15,BTBD10_Q9BSF8_239_CPDGISIPELR (UniProt Q9BSF8),-0.125
16,C7orf50_Q9BRJ6_107_SGAELALDYLCR (UniProt Q9BRJ6),0.126
17,C20orf27_Q9GZN8_156_CVGAELEYDSEHSDWHGFD (UniProt Q9GZN8),-0.0571
18,BTF3_P20290_22_GGCPGGEATLSQPPPR (UniProt P20290),-0.162
19,BUD31_P41223_139_IIECTHCGCR (UniProt P41223),0.134
20,BRI3_O95415_78_YPANSIVVVGGCPVCR (UniProt O95415),-0.0909

row,Target,probe-labelled cysteine peptide fold change
1,BRD7_Q9NPI1_338_LVNSQCEFER (UniProt Q9NPI1),-0.0257
2,BZW2_Q9Y6E2_270_LSQECPIK (UniProt Q9Y6E2),-0.0657
3,C16orf62_Q7Z3J2_925_HGCADTR (UniProt Q7Z3J2),-0.186
4,CAMKV_Q8NCB2_181_EPCGTPEYLAPEVVGR (UniProt Q8NCB2),-0.22
5,C11orf54_Q9H0W9_226_SHIMPAEFSSCPLNSDEEVNK (UniProt Q9H0W9),-0.0406
6,CANX_P27824_160_PFLFDTKPLIVQYEVNFQNGIECGGAYVK (UniProt P27824),-0.104
7,CAP1_Q01518_356_CVNTTLQIK (UniProt Q01518),0.0826
8,CAP1_Q01518_375_GKINSITVDNCK (UniProt Q01518),-0.0521
9,CABIN1_Q9Y6J0_589_FGPDFPGTHCLGDLLQLSFASSQR (UniProt Q9Y6J0),-0.0631
10,BTAF1_O14981_1626_QLLLDCGLGNGSTSESGTESVVAQHR (UniProt O14981),0.382
11,CAP1_Q01518_375_GKINSITVDNCKK (UniProt Q01518),-0.169
12,BTAF1_O14981_1209_FMATQCFATLIR (UniProt O14981),0.0615
13,CAMK2G_Q13555_549_WLNVHYHCSGAPAAPLQ (UniProt Q13555),0.219
14,CALR_P27797_105_HEQNIDCGGGYVK (UniProt P27797),-0.0595
15,C15orf40_Q8WUR7_62_GCVTIAIHAK (UniProt Q8WUR7),0.168
16,C8orf88_P0DMB2_93_LSSVSICR (UniProt P0DMB2),-0.216
17,C6orf120_Q7Z4R8_99_GDADLYVSASSLHPSFDDYELQSATCGPDAVSIPAHFR (UniProt Q7Z4R8),-0.00545
18,CAMSAP1_Q5T5Y3_1507_CDANHYIILFR (UniProt Q5T5Y3),-0.0167
19,C15orf39_Q6ZRI6_831_CPFPHVVR (UniProt Q6ZRI6),-0.0204
